Experimental findings from US20240402190A1 are described below.

Sequences of proteins named here, by UniProt entry; tags and fusion partners are left off. A change or cut given only in a name is not applied to a line headed by its entry. A line that says so, or that is headed by a name, gives the form on record, which may keep a tag or linker. Residues count along the entry.
Sarcoplasmic/endoplasmic reticulum calcium ATPase 1a (SERCA1a), rabbit (P04191, form named): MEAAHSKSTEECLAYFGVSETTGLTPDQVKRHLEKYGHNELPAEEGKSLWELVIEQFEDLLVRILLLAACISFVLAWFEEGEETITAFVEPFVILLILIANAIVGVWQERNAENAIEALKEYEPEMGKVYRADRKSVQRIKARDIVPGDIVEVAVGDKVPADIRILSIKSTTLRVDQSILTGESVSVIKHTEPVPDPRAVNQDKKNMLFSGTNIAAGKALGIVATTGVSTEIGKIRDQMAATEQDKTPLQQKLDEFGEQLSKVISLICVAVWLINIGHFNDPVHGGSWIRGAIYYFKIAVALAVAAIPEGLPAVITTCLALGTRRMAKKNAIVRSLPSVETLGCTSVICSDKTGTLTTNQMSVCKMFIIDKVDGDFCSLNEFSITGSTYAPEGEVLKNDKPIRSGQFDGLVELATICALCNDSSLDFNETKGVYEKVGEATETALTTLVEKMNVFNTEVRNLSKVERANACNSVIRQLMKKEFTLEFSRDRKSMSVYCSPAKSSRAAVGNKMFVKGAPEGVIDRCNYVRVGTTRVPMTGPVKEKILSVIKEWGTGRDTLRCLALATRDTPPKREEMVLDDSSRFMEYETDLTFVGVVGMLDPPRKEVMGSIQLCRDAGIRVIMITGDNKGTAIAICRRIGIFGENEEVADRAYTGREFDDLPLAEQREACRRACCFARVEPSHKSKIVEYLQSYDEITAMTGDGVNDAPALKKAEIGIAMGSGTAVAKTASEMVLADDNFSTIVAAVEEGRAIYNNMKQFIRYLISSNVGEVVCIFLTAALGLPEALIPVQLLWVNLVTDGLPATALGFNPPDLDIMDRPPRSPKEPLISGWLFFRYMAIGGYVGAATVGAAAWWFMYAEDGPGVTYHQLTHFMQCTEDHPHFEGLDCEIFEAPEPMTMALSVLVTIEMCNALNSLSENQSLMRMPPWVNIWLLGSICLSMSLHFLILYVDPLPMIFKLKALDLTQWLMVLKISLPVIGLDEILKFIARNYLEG
UniProt Q13049, residues 358-653: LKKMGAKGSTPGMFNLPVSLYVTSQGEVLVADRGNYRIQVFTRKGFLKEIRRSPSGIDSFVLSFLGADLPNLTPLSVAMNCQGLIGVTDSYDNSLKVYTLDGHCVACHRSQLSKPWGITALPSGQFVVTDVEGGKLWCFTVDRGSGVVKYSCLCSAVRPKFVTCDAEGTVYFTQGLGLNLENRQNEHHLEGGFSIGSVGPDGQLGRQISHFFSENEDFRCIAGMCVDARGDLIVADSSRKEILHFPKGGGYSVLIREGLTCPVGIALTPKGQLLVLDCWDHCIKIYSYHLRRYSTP

Results are given in words; binding and its absence hold for the method and conditions named. In cells and extracts the contact can be indirect. Some results given as binding are weak or reduced against the parent protein; the word gives no strength.

The assay has as its target Sarcoplasmic/endoplasmic reticulum calcium ATPase 1a (SERCA1a), rabbit (Rabbit) (UniProt P04191). Nature of the assay: GST pull-down from rabbit triad sample, Coomassie staining, MALDI-TOF/TOF.

In the case of “GST-linked NHL repeat protein (GST-NHL) (from UniProt Q13049 358-653)”, the binding entry was “binds”.
